In PMC7819943, “Rice protein-binding microarrays: a tool to detect cis-acting elements near promoter regions in rice”:
Some of the results follow.

These sequences were tested against T1, OsSMF1 (Oryza sativa, UniProt Q6ZLB0 1-436) (assay: protein-binding microarray (RPBM); PBS, 2% BSA, 51.3 ng/ul salmon testes DNA, 50 uM zinc acetate, 200 nM TF, 25 C, 1 h; high values mean tight binding). Conditions: protein: recombinant; tags: N-terminal polyhistidine and DsRed monomer fusion (pET32a); chain copies: 2; label: CyDye5-dUTP incorporated in the synthesized complementary strand; 3' TTTTT single-stranded linker to array surface; dsDNA, one strand shown.
T1 sequence: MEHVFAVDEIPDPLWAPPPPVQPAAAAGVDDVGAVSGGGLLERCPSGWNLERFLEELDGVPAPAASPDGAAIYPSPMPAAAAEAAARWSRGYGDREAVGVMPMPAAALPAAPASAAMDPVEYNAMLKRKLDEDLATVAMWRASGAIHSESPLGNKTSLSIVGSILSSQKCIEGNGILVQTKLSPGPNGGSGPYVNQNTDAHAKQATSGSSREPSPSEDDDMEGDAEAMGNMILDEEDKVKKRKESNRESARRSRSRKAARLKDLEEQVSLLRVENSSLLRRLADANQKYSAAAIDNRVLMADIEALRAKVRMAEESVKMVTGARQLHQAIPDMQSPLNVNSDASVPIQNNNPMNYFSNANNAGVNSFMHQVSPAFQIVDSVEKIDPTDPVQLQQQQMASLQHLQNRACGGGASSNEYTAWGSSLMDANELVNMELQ
How it was run: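 Binding signal is defined as the fluorescence intensity of each feature in arbitrary units, read on an Axon 4000B scanner. Transcription factors with N-terminal polyhistidine and DsRed fusions came from E. coli BL21-CodonPlus and were purified on Ni–NTA. They were incubated at 200 nM for 1 h at 25 °C on a custom Agilent array that had been made double-stranded with Cy5-dUTP, with 50 µM zinc acetate present, and the array was washed.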

| Sequence | binding signal |
| --- | --- |
| TATCTCCCTCGGGAGACGTGCCACGTCGCTGTGTCTATCACGGAGTCACCTAGTGCAG | 9480 fluorescence intensity (a.u.) |
| CTCGCCCTCGACACGCTGGAAGTTTGTGTACGCGTCATTCCGGAGTCACCTAGTGCAG | 9100 fluorescence intensity (a.u.) |
| GTTTTCGCTTGTACTTCACAGGCTGATCACGGTCAGTACTCGGAGTCACCTAGTGCAG | 48700 fluorescence intensity (a.u.) |
| TAGCCTAAAAGTTCCAAACACGTGAGCTATTTCAGGGCTACGGAGTCACCTAGTGCAG | 3790 fluorescence intensity (a.u.) |
| ATGGACAACTACGTTGGCGCCAAGACCAGTCACACATGCTCGGAGTCACCTAGTGCAG | 3710 fluorescence intensity (a.u.) |
| GGCTGATCCACCCGGCCACGCGGTACGTGACGCGGGGCTTCGGAGTCACCTAGTGCAG | 4250 fluorescence intensity (a.u.) |
| GCAGCACAGCCTGTGTGTCACCACTCACCAGGGAGGAGGCCGGAGTCACCTAGTGCAG | 6070 fluorescence intensity (a.u.) |
| GAATCCCTGCTTTGAGATCGACGTGTACTCTCCCTCCCTGCGGAGTCACCTAGTGCAG | 4340 fluorescence intensity (a.u.) |
| AATTACATAATTTTAATACGAAGATGAATGATCAAATATACGGAGTCACCTAGTGCAG | 56600 fluorescence intensity (a.u.) |
| TCCCTTCCCTGTTCCTGGCGACGTGTCACCTTCTTATTCGCGGAGTCACCTAGTGCAG | 11000 fluorescence intensity (a.u.) |
| CAATAGACTTCAAGGAAGCATACCAATACCAGTAACCACACGGAGTCACCTAGTGCAG | 40800 fluorescence intensity (a.u.) |
| ATAGGTTCTTTTATCAGTGTCACTGACACTTACATCGATGCGGAGTCACCTAGTGCAG | 4550 fluorescence intensity (a.u.) |
| AGAGAACTCAAGAAGCAACTGGTCCAAGTCAGCCTTCTTGCGGAGTCACCTAGTGCAG | 9350 fluorescence intensity (a.u.) |
| TTTTATATTCCCAATTAGAGTTGTAAGAAAATTATATGGCCGGAGTCACCTAGTGCAG | 3800 fluorescence intensity (a.u.) |
| GTGGGCGCGTCCACGGCCCACACTAGTCTACCACTACTGTCGGAGTCACCTAGTGCAG | 3810 fluorescence intensity (a.u.) |
| CCGACGCGTGGCCACAACGTGTCGTCGACCTCGGTTTCCCCGGAGTCACCTAGTGCAG | 4420 fluorescence intensity (a.u.) |
| TAGTTTCCGAGGGAGGGAGAGAGAGACAGCGTGGTATGGACGGAGTCACCTAGTGCAG | 4680 fluorescence intensity (a.u.) |
| ATATGGTAATACCAAAGTTAAATACTTCTATGGAAATTCCCGGAGTCACCTAGTGCAG | 8700 fluorescence intensity (a.u.) |
| AATTTCATGTCATCGTGCACGTGGCGTGCCACGTAGGCAACGGAGTCACCTAGTGCAG | 36100 fluorescence intensity (a.u.) |
| CCAACTACTCCTCCACCTCTTACCTGACATGTAATAAGCGCGGAGTCACCTAGTGCAG | 3750 fluorescence intensity (a.u.) |
| CACGCCACCCCACCGCGCCGCGCGCGCGACGATAGGTCGACGGAGTCACCTAGTGCAG | 6300 fluorescence intensity (a.u.) |

Reformatted: entries from further up.
Sequence,binding signal
ATAGGTTCTTTTATCAGTGTCACTGACACTTACATCGATGCGGAGTCACCTAGTGCAG,4550 fluorescence intensity (a.u.)
AGAGAACTCAAGAAGCAACTGGTCCAAGTCAGCCTTCTTGCGGAGTCACCTAGTGCAG,9350 fluorescence intensity (a.u.)

Further entries

| Sequence | binding signal |
| --- | --- |
| GATTCTACTGCCCCGTTGACTAATTGTCTTCGTCAGGATCCGGAGTCACCTAGTGCAG | 4160 fluorescence intensity (a.u.) |
| TGATTTGATGACTAGGTGGCACGTAGGCGCCAAGTCAGCACGGAGTCACCTAGTGCAG | 22500 fluorescence intensity (a.u.) |
| CATAATTATGTGTGTGGTCATCATTGAGAAATGGCTTGTCCGGAGTCACCTAGTGCAG | 5500 fluorescence intensity (a.u.) |
| GCGCAGTTCCTCGCCAACACCATGTCGCCGCTGCTCGCCACGGAGTCACCTAGTGCAG | 3140 fluorescence intensity (a.u.) |
| TTCTTTTCTTCTTTGAAACGGACCGTCTTTGTATTTTCGGCGGAGTCACCTAGTGCAG | 28900 fluorescence intensity (a.u.) |
| TAGTTAGAATCCTAAGATATGCTGACTAAGTATATACTCTCGGAGTCACCTAGTGCAG | 6760 fluorescence intensity (a.u.) |
| GGCGTGGGTTCGTGCGACGGGACCTCGATTCGTCCATCCACGGAGTCACCTAGTGCAG | 5150 fluorescence intensity (a.u.) |
| TGCTCCAAAAGCATAAGAAATGTGTCATGGCTGAGTCATGCGGAGTCACCTAGTGCAG | 12000 fluorescence intensity (a.u.) |
| GTTATCTCTGATTGCAACATCTTGCCGTGTCCACCGCTGTCGGAGTCACCTAGTGCAG | 4010 fluorescence intensity (a.u.) |
| CTGTTGTTCGACGCTTGGAGCTCCTCGTGCTCACGTTTCACGGAGTCACCTAGTGCAG | 3460 fluorescence intensity (a.u.) |
| GTGCACACGCATCGTGGGAGTCGCCCCGTCCACGTCACCCCGGAGTCACCTAGTGCAG | 31600 fluorescence intensity (a.u.) |
| TCTTCCACCAGCGCCTCCCTTACACGCTTCACTGACAGTGCGGAGTCACCTAGTGCAG | 3230 fluorescence intensity (a.u.) |
| GATTCACCGGCGAAATGACGTGACTGTTTCACCTAGGATGCGGAGTCACCTAGTGCAG | 6080 fluorescence intensity (a.u.) |
| CTCGCTGCTTCGCCCGCCACGTCACCCTCCTCCTCCTCCCCGGAGTCACCTAGTGCAG | 62000 fluorescence intensity (a.u.) |
| CACACACACGCGTAGCACTAGTACTCTCTCTCTCTCTCTGCGGAGTCACCTAGTGCAG | 3220 fluorescence intensity (a.u.) |
| CAAGTGATTTTGCTTACGGGGCCCGATGACCCATCAAGTTCGGAGTCACCTAGTGCAG | 3360 fluorescence intensity (a.u.) |
| CCAACCATTCACACCTCCCTCTGGTTAACTTAGTTATTGTCGGAGTCACCTAGTGCAG | 3140 fluorescence intensity (a.u.) |
| TAACGATTTGCCACGCTCTGTCAATGACACGTGGGCCCTCCGGAGTCACCTAGTGCAG | 17000 fluorescence intensity (a.u.) |
| TGCACCGGTGCAAGTGTGGGAGGGGTGTTGTACGTCGCTACGGAGTCACCTAGTGCAG | 3540 fluorescence intensity (a.u.) |
| ACATGTCGATGAGTAGATTTCCACAAGTCTAATAAAAGACCGGAGTCACCTAGTGCAG | 33400 fluorescence intensity (a.u.) |
| TTCTGCGAATTTCCTCTGACATGGAGTAATACACCTACTTCGGAGTCACCTAGTGCAG | 3480 fluorescence intensity (a.u.) |
